Source: publication PMC9675819
These are yes or no findings as the source states them, for the method shown. In cells and extracts the contact can be indirect. These calls come from enrichment with a bait or labelling near it, and not all partners need be listed.

Protein sequences, listed by entry. Tags and fused reporters are not part of them.
UniProt O00571: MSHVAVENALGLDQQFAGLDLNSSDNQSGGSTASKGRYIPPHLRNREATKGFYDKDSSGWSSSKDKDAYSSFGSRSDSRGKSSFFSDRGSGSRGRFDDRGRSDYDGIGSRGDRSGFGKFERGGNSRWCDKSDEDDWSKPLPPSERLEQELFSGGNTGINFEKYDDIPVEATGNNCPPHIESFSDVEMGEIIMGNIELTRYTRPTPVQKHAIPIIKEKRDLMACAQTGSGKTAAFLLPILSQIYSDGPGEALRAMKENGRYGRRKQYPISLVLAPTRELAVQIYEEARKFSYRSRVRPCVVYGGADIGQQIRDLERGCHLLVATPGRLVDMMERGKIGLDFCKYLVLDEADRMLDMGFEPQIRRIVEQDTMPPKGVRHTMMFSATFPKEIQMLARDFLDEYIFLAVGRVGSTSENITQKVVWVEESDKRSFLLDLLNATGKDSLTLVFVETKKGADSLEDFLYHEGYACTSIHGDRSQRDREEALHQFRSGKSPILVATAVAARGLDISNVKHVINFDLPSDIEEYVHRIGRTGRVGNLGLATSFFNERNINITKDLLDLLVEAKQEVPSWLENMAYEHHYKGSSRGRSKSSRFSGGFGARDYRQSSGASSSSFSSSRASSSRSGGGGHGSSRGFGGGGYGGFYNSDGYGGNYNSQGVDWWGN
UniProt Q7Z434: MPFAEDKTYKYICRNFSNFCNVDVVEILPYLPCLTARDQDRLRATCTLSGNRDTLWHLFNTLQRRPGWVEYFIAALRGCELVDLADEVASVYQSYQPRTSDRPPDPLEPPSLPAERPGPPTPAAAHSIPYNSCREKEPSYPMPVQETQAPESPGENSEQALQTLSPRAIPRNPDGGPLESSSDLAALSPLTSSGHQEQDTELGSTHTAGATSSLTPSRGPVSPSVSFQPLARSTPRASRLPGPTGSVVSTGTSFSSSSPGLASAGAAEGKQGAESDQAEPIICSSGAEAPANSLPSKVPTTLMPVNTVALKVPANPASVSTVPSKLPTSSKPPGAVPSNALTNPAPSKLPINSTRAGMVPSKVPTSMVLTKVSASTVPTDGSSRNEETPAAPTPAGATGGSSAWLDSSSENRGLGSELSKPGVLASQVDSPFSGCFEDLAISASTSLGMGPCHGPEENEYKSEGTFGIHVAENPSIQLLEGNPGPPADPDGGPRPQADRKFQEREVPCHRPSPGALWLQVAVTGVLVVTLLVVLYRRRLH
UniProt O00463: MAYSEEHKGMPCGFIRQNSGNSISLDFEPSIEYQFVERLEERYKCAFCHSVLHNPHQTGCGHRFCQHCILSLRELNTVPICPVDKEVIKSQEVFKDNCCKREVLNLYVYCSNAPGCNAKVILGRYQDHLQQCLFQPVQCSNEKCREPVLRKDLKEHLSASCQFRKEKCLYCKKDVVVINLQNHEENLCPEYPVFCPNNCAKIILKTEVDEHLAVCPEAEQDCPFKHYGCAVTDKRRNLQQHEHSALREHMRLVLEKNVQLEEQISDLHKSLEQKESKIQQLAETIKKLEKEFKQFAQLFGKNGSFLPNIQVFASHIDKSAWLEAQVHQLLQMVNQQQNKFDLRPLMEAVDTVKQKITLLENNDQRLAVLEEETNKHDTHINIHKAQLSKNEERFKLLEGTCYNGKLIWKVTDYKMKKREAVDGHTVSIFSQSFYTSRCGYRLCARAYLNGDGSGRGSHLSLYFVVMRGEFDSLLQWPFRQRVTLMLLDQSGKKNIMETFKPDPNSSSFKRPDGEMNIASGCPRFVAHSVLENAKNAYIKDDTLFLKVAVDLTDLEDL
UniProt Q9UHD2: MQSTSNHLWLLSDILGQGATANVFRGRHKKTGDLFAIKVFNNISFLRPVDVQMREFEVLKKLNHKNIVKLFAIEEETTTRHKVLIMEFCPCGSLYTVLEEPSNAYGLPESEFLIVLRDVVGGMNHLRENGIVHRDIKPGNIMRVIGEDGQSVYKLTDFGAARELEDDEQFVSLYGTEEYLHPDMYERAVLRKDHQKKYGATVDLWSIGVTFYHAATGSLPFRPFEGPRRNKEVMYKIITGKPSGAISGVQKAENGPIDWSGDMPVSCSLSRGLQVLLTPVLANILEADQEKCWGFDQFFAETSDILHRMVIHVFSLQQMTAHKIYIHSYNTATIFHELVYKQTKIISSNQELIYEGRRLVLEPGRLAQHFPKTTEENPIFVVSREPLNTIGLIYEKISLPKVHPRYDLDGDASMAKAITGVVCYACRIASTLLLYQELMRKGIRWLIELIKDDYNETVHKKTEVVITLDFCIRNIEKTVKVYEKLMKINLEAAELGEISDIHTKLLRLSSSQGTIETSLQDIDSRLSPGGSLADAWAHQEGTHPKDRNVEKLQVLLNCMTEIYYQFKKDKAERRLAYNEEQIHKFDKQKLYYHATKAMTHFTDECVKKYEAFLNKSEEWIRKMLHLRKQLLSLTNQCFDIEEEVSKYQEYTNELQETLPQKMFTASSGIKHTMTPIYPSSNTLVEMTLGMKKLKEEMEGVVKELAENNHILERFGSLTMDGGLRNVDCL

Target: FLAG-DDX3X (UniProt O00571)
Assay: affinity purification with mass spectrometry; FLAG-DDX3X from transfected HEK293T lysate (co-immunoprecipitation lysis buffer) enriched on anti-FLAG M2 beads at 4 °C for 4 hours, eluted with 3xFLAG peptide, silver-stained gel, mass spectrometry; in presence or absence of circRIG-I

Molecule | binding
MAVS (from UniProt Q7Z434 1-540) | binds
TRAF5 (from UniProt O00463 1-557) | binds
TBK1 (from UniProt Q9UHD2 1-729) | binds
TRAF1 (protein, UniProt Q13077 1-416) MASSSGSSPRPAPDENEFPFGCPPTVCQDPKEPRALCCAGCLSENPRNGEDQICPKCRGEDLQSISPGSRLRTQEKAHPEVAEAGIGCPFAGVGCSFKGSPQSVQEHEVTSQTSHLNLLLGFMKQWKARLGCGLESGPMALEQNLSDLQLQAAVEVAGDLEVDCYRAPCSESQEELALQHFMKEKLLAELEGKLRVFENIVAVLNKEVEASHLALATSIHQSQLDRERILSLEQRVVELQQTLAQKDQALGKLEQSLRLMEEASFDGTFLWKITNVTRRCHESACGRTVSLFSPAFYTAKYGYKLCLRLYLNGDGTGKRTHLSLFIVIMRGEYDALLPWPFRNKVTFMLLDQNNREHAIDAFRPDLSSASFQRPQSETNVASGCPLFFPLSKLQSPKHAYVKDDTMFLKCIVETST | binds
TRAF4 (protein, UniProt Q9BUZ4 1-470) MPGFDYKFLEKPKRRLLCPLCGKPMREPVQVSTCGHRFCDTCLQEFLSEGVFKCPEDQLPLDYAKIYPDPELEVQVLGLPIRCIHSEEGCRWSGPLRHLQGHLNTCSFNVIPCPNRCPMKLSRRDLPAHLQHDCPKRRLKCEFCGCDFSGEAYESHEGMCPQESVYCENKCGARMMRRLLAQHATSECPKRTQPCTYCTKEFVFDTIQSHQYQCPRLPVACPNQCGVGTVAREDLPGHLKDSCNTALVLCPFKDSGCKHRCPKLAMARHVEESVKPHLAMMCALVSRQRQELQELRRELEELSVGSDGVLIWKIGSYGRRLQEAKAKPNLECFSPAFYTHKYGYKLQVSAFLNGNGSGEGTHLSLYIRVLPGAFDNLLEWPFARRVTFSLLDQSDPGLAKPQHVTETFHPDPNWKNFQKPGTWRGSLDESSLGFGYPKFISHQDIRKRNYVRDDAVFIRAAVELPRKILS | binds
